Data published in paper PMC3374257.
No constants are given. Whether binding was seen depends on the method and setting. In cells and extracts the contact can be indirect. These calls come from enrichment with a bait or labelling near it, and not all partners need be listed.

Amino acid sequences for entries named in this document (tags omitted).
UniProt Q8BKJ9: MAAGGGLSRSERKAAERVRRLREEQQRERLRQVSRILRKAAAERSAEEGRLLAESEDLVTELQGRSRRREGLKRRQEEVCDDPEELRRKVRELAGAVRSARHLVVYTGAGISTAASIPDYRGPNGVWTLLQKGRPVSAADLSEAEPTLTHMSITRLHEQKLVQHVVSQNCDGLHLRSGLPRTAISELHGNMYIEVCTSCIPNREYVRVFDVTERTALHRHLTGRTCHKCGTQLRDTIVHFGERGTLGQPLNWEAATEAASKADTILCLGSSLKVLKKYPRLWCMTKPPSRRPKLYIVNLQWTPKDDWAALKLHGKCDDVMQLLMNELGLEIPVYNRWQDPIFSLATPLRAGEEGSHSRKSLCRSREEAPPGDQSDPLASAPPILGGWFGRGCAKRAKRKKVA

Molecular target: T1, Sirt1 (UniProt Q923E4)
T1 sequence: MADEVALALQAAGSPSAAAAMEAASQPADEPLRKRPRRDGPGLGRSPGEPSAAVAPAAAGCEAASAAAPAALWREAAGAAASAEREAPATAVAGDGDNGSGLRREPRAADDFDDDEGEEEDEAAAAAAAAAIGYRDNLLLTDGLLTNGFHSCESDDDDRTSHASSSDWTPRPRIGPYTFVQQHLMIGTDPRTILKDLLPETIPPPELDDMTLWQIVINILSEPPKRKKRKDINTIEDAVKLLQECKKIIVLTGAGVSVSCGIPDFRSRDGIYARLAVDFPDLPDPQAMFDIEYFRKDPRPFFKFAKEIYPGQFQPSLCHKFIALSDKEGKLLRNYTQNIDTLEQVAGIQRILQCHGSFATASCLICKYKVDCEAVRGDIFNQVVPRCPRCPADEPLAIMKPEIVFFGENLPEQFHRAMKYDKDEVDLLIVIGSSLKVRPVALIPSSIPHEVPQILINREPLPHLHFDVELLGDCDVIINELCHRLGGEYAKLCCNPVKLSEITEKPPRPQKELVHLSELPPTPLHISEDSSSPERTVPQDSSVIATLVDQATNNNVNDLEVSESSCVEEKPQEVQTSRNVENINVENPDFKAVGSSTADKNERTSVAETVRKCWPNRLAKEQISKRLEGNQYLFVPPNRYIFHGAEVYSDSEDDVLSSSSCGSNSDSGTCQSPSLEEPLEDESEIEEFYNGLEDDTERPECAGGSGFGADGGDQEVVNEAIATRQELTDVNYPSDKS
Assay: affinity purification with mass spectrometry; unbiased screen for Sirt1 interactors; label free quantitative mass spectrometry based co-immunoprecipitation; Sirt1 as bait

For Sirt7 (from UniProt Q8BKJ9 1-402), the binding was “binds”.
